Data reported in paper PMC6854080, “Increased Mosquito Midgut Infection by Dengue Virus Recruitment of Plasmin Is Blocked by an Endogenous Kazal-type Inhibitor” (iScience, 2019).
Results are given in words; binding and its absence hold for the method and conditions named. Binding calls can cover weak binding; strength is not graded here.

Target: T1, recombinant AaTI (Aedes aegypti Kazal-type serine protease inhibitor) (Aedes aegypti) (UniProt Q177W0)
T1 sequence: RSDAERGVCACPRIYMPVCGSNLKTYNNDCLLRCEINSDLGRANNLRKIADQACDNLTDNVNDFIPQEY
Assay: BLI; Ni-NTA biosensors loaded with rAaTI and immersed in a trypsin solution

trypsin (enzyme)
binding: binds
